Assay: RRT study: LC-MS/MS urinary proteomics, AKI after cardiac surgery, RRT vs No RRT
Parameters: species or system human
Details: patients who did vs did not require RRT/dialysis; for Up or Down: direction of urinary abundance; for Mean Fold Change: read with the Up or Down column

Row | Molecule | Up or Down | Mean Fold Change
1 | N-acetylglucosamine-6-sulfatase (protein, UniProt P15586 37-552, looked up) N-acetylglucosamine-6-sulfatas …: VFGVAAGTRRPNVVLLLTDDQDEVLGGMTPLKKTKALIGEMGMTFSSAYVPSALCCPSRASILTGKYPHNHHVVNNTLEGNCSSKSWQKIQEPNTFPAILRSMCGYQTFFAGKYLNEYGAPDAGGLEHVPLGWSYWYALEKNSKYYNYTLSINGKARKHGENYSVDYLTDVLANVSLDFLDYKSNFEPFFMMIATPAPHSPWTAAPQYQKAFQNVFAPRNKNFNIHGTNKHWLIRQAKTPMTNSSIQFLDNAFRKRWQTLLSVDDLVEKLVKRLEFTGELNNTYIFYTSDNGYHTGQFSLPIDKRQLYEFDIKVPLLVRGPGIKPNQTSKMLVANIDLGPTILDIAGYDLNKTQMDGMSLLPILRGASNLTWRSDVLVEYQGEGRNVTDPTCPSLSPGVSQCFPDCVCEDAYNNTYACVRTMSALWNLQYCEFDDQEVFVEVYNLTADPDQITNIAKTIDPELLGKMNYRLMMLQSCSGPTCRTPGVFDPGYRFDPRLMFSNRGSVRTRRFSKHLL | Up | 2.783
2 | Apolipoprotein C-II (protein, UniProt P02655 29-101, looked up) Apolipoprotein C-II: DEMPSPTFLTQVKESLSSYWESAKTAAQNLYEKTYLPAVDEKLRDLYSKSTAAMSTYTGIFTDQVLSVLKGEE | Up | 8.034
3 | Myc box-dependent-interacting protein 1 (protein, UniProt O00499 2-593, looked up) Myc box-dependent-interacting …: AEMGSKGVTAGKIASNVQKKLTRAQEKVLQKLGKADETKDEQFEQCVQNFNKQLTEGTRLQKDLRTYLASVKAMHEASKKLNECLQEVYEPDWPGRDEANKIAENNDLLWMDYHQKLVDQALLTMDTYLGQFPDIKSRIAKRGRKLVDYDSARHHYESLQTAKKKDEAKIAKPVSLLEKAAPQWCQGKLQAHLVAQTNLLRNQAEEELIKAQKVFEEMNVDLQEELPSLWNSRVGFYVNTFQSIAGLEENFHKEMSKLNQNLNDVLVGLEKQHGSNTFTVKAQPSDNAPAKGNKSPSPPDGSPAATPEIRVNHEPEPAGGATPGATLPKSPSQLRKGPPVPPPPKHTPSKEVKQEQILSLFEDTFVPEISVTTPSQFEAPGPFSEQASLLDLDFDPLPPVTSPVKAPTPSGQSIPWDLWEPTESPAGSLPSGEPSAAEGTFAVSWPSQTAEPGPAQPAEASEVAGGTQPAAGAQEPGETAASEAASSSLPAVVVETFPATVNGTVEGGSGAGRLDLPPGFMFKVQAQHDYTATDTDELQLKAGDVVLVIPFQNPEEQDEGWLMGVKESDWNQHKELEKCRGVFPENFTERVP | Up | 2.785
4 | Protein FAM3C (protein, UniProt Q92520 25-227, looked up) Protein FAM3C: QVFEIKMDASLGNLFARSALDTAARSTKPPRYKCGISKACPEKHFAFKMASGAANVVGPKICLEDNVLMSGVKNNVGRGINVALANGKTGEVLDTKYFDMWGGDVAPFIEFLKAIQDGTIVLMGTYDDGATKLNDEARRLIADLGSTSITNLGFRDNWVFCGGKGIKTKSPFEQHIKNNKDTNKYEGWPEVVEMEGCIPQKQD | Up | 1.912
5 | Phosphoglycerate kinase 1 (protein, UniProt P00558 2-417, looked up) Phosphoglycerate kinase 1: SLSNKLTLDKLDVKGKRVVMRVDFNVPMKNNQITNNQRIKAAVPSIKFCLDNGAKSVVLMSHLGRPDGVPMPDKYSLEPVAVELKSLLGKDVLFLKDCVGPEVEKACANPAAGSVILLENLRFHVEEEGKGKDASGNKVKAEPAKIEAFRASLSKLGDVYVNDAFGTAHRAHSSMVGVNLPQKAGGFLMKKELNYFAKALESPERPFLAILGGAKVADKIQLINNMLDKVNEMIIGGGMAFTFLKVLNNMEIGTSLFDEEGAKIVKDLMSKAEKNGVKITLPVDFVTADKFDENAKTGQATVASGIPAGWMGLDCGPESSKKYAEAVTRAKQIVWNGPVGVFEWEAFARGTKALMDEVVKATSRGCITIIGGGDTATCCAKWNTEDKVSHVSTGGGASLELLEGKVLPGVDALSNI | Up | 6.053
6 | Fructose-bisphosphate aldolase B (protein, UniProt P05062 2-364, looked up) Fructose-bisphosphate …: AHRFPALTQEQKKELSEIAQSIVANGKGILAADESVGTMGNRLQRIKVENTEENRRQFREILFSVDSSINQSIGGVILFHETLYQKDSQGKLFRNILKEKGIVVGIKLDQGGAPLAGTNKETTIQGLDGLSERCAQYKKDGVDFGKWRAVLRIADQCPSSLAIQENANALARYASICQQNGLVPIVEPEVIPDGDHDLEHCQYVTEKVLAAVYKALNDHHVYLEGTLLKPNMVTAGHACTKKYTPEQVAMATVTALHRTVPAAVPGICFLSGGMSEEDATLNLNAINLCPLPKPWKLSFSYGRALQASALAAWGGKAANKEATQEAFMKRAMANCQAAKGQYVHTGSSGAASTQSLFTACYTY | Up | 9.539
7 | Gastrotropin (protein, UniProt P51161 2-128, looked up) Gastrotropin: AFTGKFEMESEKNYDEFMKLLGISSDVIEKARNFKIVTEVQQDGQDFTWSQHYSGGHTMTNKFTVGKESNIQTMGGKTFKATVQMEGGKLVVNFPNYHQTSEIVGDKLVEVSTIGGVTYERVSKRLA | Up | –
8 | Ubiquitin carboxyl-terminal hydrolase 36 (protein, UniProt Q9P275 1-1123, looked up) Ubiquitin carboxyl-terminal …: MPIVDKLKEALKPGRKDSADDGELGKLLASSAKKVLLQKIEFEPASKSFSYQLEALKSKYVLLNPKTEGASRHKSGDDPPARRQGSEHTYESCGDGVPAPQKVLFPTERLSLRWERVFRVGAGLHNLGNTCFLNATIQCLTYTPPLANYLLSKEHARSCHQGSFCMLCVMQNHIVQAFANSGNAIKPVSFIRDLKKIARHFRFGNQEDAHEFLRYTIDAMQKACLNGCAKLDRQTQATTLVHQIFGGYLRSRVKCSVCKSVSDTYDPYLDVALEIRQAANIVRALELFVKADVLSGENAYMCAKCKKKVPASKRFTIHRTSNVLTLSLKRFANFSGGKITKDVGYPEFLNIRPYMSQNNGDPVMYGLYAVLVHSGYSCHAGHYYCYVKASNGQWYQMNDSLVHSSNVKVVLNQQAYVLFYLRIPGSKKSPEGLISRTGSSSLPGRPSVIPDHSKKNIGNGIISSPLTGKRQDSGTMKKPHTTEEIGVPISRNGSTLGLKSQNGCIPPKLPSGSPSPKLSQTPTHMPTILDDPGKKVKKPAPPQHFSPRTAQGLPGTSNSNSSRSGSQRQGSWDSRDVVLSTSPKLLATATANGHGLKGNDESAGLDRRGSSSSSPEHSASSDSTKAPQTPRSGAAHLCDSQETNCSTAGHSKTPPSGADSKTVKLKSPVLSNTTTEPASTMSPPPAKKLALSAKKASTLWRATGNDLRPPPPSPSSDLTHPMKTSHPVVASTWPVHRARAVSPAPQSSSRLQPPFSPHPTLLSSTPKPPGTSEPRSCSSISTALPQVNEDLVSLPHQLPEASEPPQSPSEKRKKTFVGEPQRLGSETRLPQHIREATAAPHGKRKRKKKKRPEDTAASALQEGQTQRQPGSPMYRREGQAQLPAVRRQEDGTQPQVNGQQVGCVTDGHHASSRKRRRKGAEGLGEEGGLHQDPLRHSCSPMGDGDPEAMEESPRKKKKKKRKQETQRAVEEDGHLKCPRSAKPQDAVVPESSSCAPSANGWCPGDRMGLSQAPPVSWNGERESDVVQELLKYSSDKAYGRKVLTWDGKMSAVSQDAIEDSRQARTETVVDDWDEEFDRGKEKKIKKFKREKRRNFNAFQKLQTRRNFWSVTHPAKAASLSYRR | Up | 2.55
9 | 3-mercaptopyruvate sulfurtransferase (protein, UniProt P25325 2-297, looked up) 3-mercaptopyruvate …: ASPQLCRALVSAQWVAEALRAPRAGQPLQLLDASWYLPKLGRDARREFEERHIPGAAFFDIDQCSDRTSPYDHMLPGAEHFAEYAGRLGVGAATHVVIYDASDQGLYSAPRVWWMFRAFGHHAVSLLDGGLRHWLRQNLPLSSGKSQPAPAEFRAQLDPAFIKTYEDIKENLESRRFQVVDSRATGRFRGTEPEPRDGIEPGHIPGTVNIPFTDFLSQEGLEKSPEEIRHLFQEKKVDLSKPLVATCGSGVTACHVALGAYLCGKPDVPIYDGSWVEWYMRARPEDVISEGRGKTH | Up | 2.229
10 | Chromogranin-A (protein, UniProt P10645 19-457, looked up) Chromogranin-A: LPVNSPMNKGDTEVMKCIVEVISDTLSKPSPMPVSQECFETLRGDERILSILRHQNLLKELQDLALQGAKERAHQQKKHSGFEDELSEVLENQSSQAELKEAVEEPSSKDVMEKREDSKEAEKSGEATDGARPQALPEPMQESKAEGNNQAPGEEEEEEEEATNTHPPASLPSQKYPGPQAEGDSEGLSQGLVDREKGLSAEPGWQAKREEEEEEEEEAEAGEEAVPEEEGPTVVLNPHPSLGYKEIRKGESRSEALAVDGAGKPGAEEAQDPEGKGEQEHSQQKEEEEEMAVVPQGLFRGGKSGELEQEEERLSKEWEDSKRWSKMDQLAKELTAEKRLEGQEEEEDNRDSSMKLSFRARAYGFRGPGPQLRRGWRPSSREDSLEAGLPLQVRGYPEEKKEEEGSANRRPEDQELESLSAIEAELEKVAHQLQALRRG | Up | 7.558
11 | Phosphatidylethanolamine-binding protein 1 (protein, UniProt P30086 2-187, looked up) Phosphatidylethanolamine-bindi …: PVDLSKWSGPLSLQEVDEQPQHPLHVTYAGAAVDELGKVLTPTQVKNRPTSISWDGLDSGKLYTLVLTDPDAPSRKDPKYREWHHFLVVNMKGNDISSGTVLSDYVGSGPPKGTGLHRYVWLVYEQDRPLKCDEPILSNRSGDHRGKFKVASFRKKYELRAPVAGTCYQAEWDDYVPKLYEQLSGK | Up | –
12 | Glutaredoxin-1 (protein, UniProt P35754 2-106, looked up) Glutaredoxin-1: AQEFVNCKIQPGKVVVFIKPTCPYCRRAQEILSQLPIKQGLLEFVDITATNHTNEIQDYLQQLTGARTVPRVFIGKDCIGGCSDLVSLQQSGELLTRLKQIGALQ | Up | 2.006
13 | Thyroxine-binding globulin (protein, UniProt P05543 21-415, looked up) Thyroxine-binding globulin: ASPEGKVTACHSSQPNATLYKMSSINADFAFNLYRRFTVETPDKNIFFSPVSISAALVMLSFGACCSTQTEIVETLGFNLTDTPMVEIQHGFQHLICSLNFPKKELELQIGNALFIGKHLKPLAKFLNDVKTLYETEVFSTDFSNISAAKQEINSHVEMQTKGKVVGLIQDLKPNTIMVLVNYIHFKAQWANPFDPSKTEDSSSFLIDKTTTVQVPMMHQMEQYYHLVDMELNCTVLQMDYSKNALALFVLPKEGQMESVEAAMSSKTLKKWNRLLQKGWVDLFVPKFSISATYDLGATLLKMGIQHAYSENADFSGLTEDNGLKLSNAAHKAVLHIGEKGTEAAAVPEVELSDQPENTFLHPIIQIDRSFMLLILERSTRSILFLGKVVNPTEA | Up | 32.78
14 | Thioredoxin (protein, UniProt P10599 2-105, looked up) Thioredoxin: VKQIESKTAFQEALDAAGDKLVVVDFSATWCGPCKMIKPFFHSLSEKYSNVIFLEVDVDDCQDVASECEVKCMPTFQFFKKGQKVGEFSGANKEKLEATINELV | Up | –
